Assay results from patent publication US20240400677A1.

B1: Antibody 21 (scFv, V domains shown)
VH: EVQLLESGGGLVQPGGSLRLSCAASGFTLGSYWMHWVRQAPGKGLEWVSLISWDGGSTYYADSVKGRFTISRDNSKNTLYLQMNSLRAEDTAVYYCAKGPWVGYSGYDLNYYYYGMDVWGQGTTVTVSS
VL: DIQMTQSPSSLSASVGDRVTITCRASQDIRRALAWYQQKPGKAPKLLIYAASSLQSGVPSRFSGSGSGTDFTLTISSLQPEDFATYYCLQHNSYPPTFGQGTKLEIK
B2: Antibody 24 (scFv, V domains shown)
VH: QVQLVQSGAEVKKPGASVKVSCKASGYTFTGYYMHWVRQAPGQGLEWMGIINPSGGSTNYAQKFQGRVTMTRDTSTSTVYMELSSLRSEDTAVYYCARGPIGYGMDVWGQGTLVTVSS
VL: DIQMTQSPSSLSASVGDRVTITCRASQGIGNDLGWYQQKPGKAPKLLIYAASNLETGVPSRFSGSGSGTDFTLTISSLQPEDFATYYCLQHHSYPFTFGQGTKLEIK
B3: Antibody 9 (scFv, V domains shown)
VH: QVQLVQSGAEVKKPGASVKVSCKASGYSFSDYYMHWVRQAPGQGLEWMGWMSPNSGNTGYAQKFQGRVTMTRDTSTSTVYMELSSLRSEDTAVYYCARQREEYGHYYYGMDVWGQGTMVTVSS
VL: EIVMTQSPATLSVSPGERATLSCRASQSLGSTYLAWYQQKPGQAPRLLIYGASTRATGIPARFSGSGSGTEFTLTISSLQSEDFAVYYCQQYYSSPPTFGQGTKVEIK
B4: Antibody 29 (scFv, V domains shown)
VH: QVQLVQSGAEVKKPGASVKVSCKASGGTFSSYAISWVRQAPGQGLEWMGIINPSSSSTGYAQKFQGRVTMTRDTSTSTVYMELSSLRSEDTAVYYCARAGYYDSSGYYYSPYYGMDVWGQGTTVTVSS
VL: EIVMTQSPATLSVSPGERATLSCRASQSISGSYLAWYQQKPGQAPRLLIYGASTRATGIPARFSGSGSGTEFTLTISSLQSEDFAVYYCQQYGSFPFTFGPGTKVDIK
B5: Antibody 31 (scFv, V domains shown)
VH: QVQLVQSGAEVKKPGASVKVSCKASGGTFRSYAISWVRQAPGQGLEWMGWMNPNSGNTGYAQKFQGRVTMTRDTSTSTVYMELSSLRSEDTAVYYCARESVLKGGMDVWGQGTTVTVSS
VL: DIVMTQSPDSLAVSLGERATINCRSSQSLFHSSTNANNLAWYQQKPGQPPKLLIYWASTRESGVPDRFSGSGSGTDFTLTISSLQAEDVAVYYCQQYYITPLTFGQGTRLEIK
B6: Antibody 18 (scFv, V domains shown)
VH: QVQLVQSGAEVKKPGASVKVSCKASGYTFTGYYMHWVRQAPGQGLEWMGWMNPNSGNTGYAQKFQGRVTMTRDTSTSTVYMELSSLRSEDTAVYYCARGSGYDAGVFDYWGQGTLVTVSS
VL: DIQMTQSPSSLSASVGDRVTITCRASQGIGNDLAWYQQKPGKAPKLLIYDAKDLHPGVPSRFSGSGSGTDFTLTISSLQPEDFATYYCQQSYSFPRTFGQGTRLEIK
B7: Antibody 17 (scFv, V domains shown)
VH: QVQLVQSGAEVKKPGASVKVSCKASGYTFTRNYVHWVRQAPGQGLEWMGRINPNSGGTNTAQKFQGRVTMTRDTSTSTVYMELSSLRSEDTAVYYCARLGDVAVAASFDYWGQGTLVTVSS
VL: DIQMTQSPSSLSASVGDRVTITCRASQSISSYLNWYQQKPGKAPKLLIYDASSLESGVPSRFSGSGSGTDFTLTISSLQPEDFATYYCQQANSFPLTFGPGTKVDIK
B8: Antibody 28 (scFv, V domains shown)
VH: QVQLVQSGAEVKKPGASVKVSCKASGYTFTSYNIHWVRQAPGQGLEWMGWISAYNGNTNYAQKLQGRVTMTRDTSTSTVYMELSSLRSEDTAVYYCALDGGQLGVAFDIWGQGTMVTVSS
VL: DIQMTQSPSSLSASVGDRVTITCRASQGISNWLAWYQQKPGKAPKLLIYDASNLDAGVPSRFSGSGSGTDFTLTISSLQPEDFATYYCQQANSLPLTFGGGTKVEIK
B9: Antibody 12 (scFv, V domains shown)
VH: QVQLVQSGAEVKKPGASVKVSCKASGGTFGSYGINWVRQAPGQGLEWMGWISAYNGNTNYAQKLQGRVTMTRDTSTSTVYMELSSLRSEDTAVYYCARDGIDYGGNSGYDYWGQGTLVTVSS
VL: DIQMTQSPSSLSASVGDRVTITCRASQNIRNYLNWYQQKPGKAPKLLIYAASSLQGGVPSRFSGSGSGTDFTLTISSLQPEDFATYYCQQSYNGPYTFGQGTKVEIK
B10: Antibody 16 (scFv, V domains shown)
VH: QVQLVQSGAEVKKPGASVKVSCKASGYTFTSYYMHWVRQAPGQGLEWMGWINPNSGNAGFAQKFQGRVTMTRDTSTSTVYMELSSLRSEDTAVYYCARGPVYSYGPFDYWGQGTLVTVSS
VL: DIQMTQSPSSLSASVGDRVTITCRASQGISTYLAWYQQKPGKAPKLLIYAASTLQSGVPSRFSGSGSGTDFTLTISSLQPEDFATYYCQQSHSAPITFGQGTKVEIK
B11: Antibody 33 (scFv, V domains shown)
VH: QVQLVQSGAEVKKPGASVKVSCKASGYTFTSYYMHWVRQAPGQGLEWMGWMNPNSDNTGYAQKFQGRVTMTRDTSTSTVYMELSSLRSEDTAVYYCARVGVGYGYYYYGMDVWGQGTTVTVSS
VL: DIQMTQSPSSLSASVGDRVTITCRAGQSIGDYLNWYQQKPGKAPKLLIYAASSLQSGVPSRFSGSGSGTDFTLTISSLQPEDFATYYCQQSYSTPWTFGQGTKVEIK
B12: Antibody 15 (scFv, V domains shown)
VH: QVQLVQSGAEVKKPGASVKVSCKASGYSFTSYGISWVRQAPGQGLEWMGWISPYNGNTNYAQKLQGRVTMTRDTSTSTVYMELSSLRSEDTAVYYCAREAYGDYGDYFDYWGQGTLVTVSS
VL: DIQMTQSPSSLSASVGDRVTITCRASQGVGDRSAWYQQKPGKAPKLLIYDASNLETGVPSRFSGSGSGTDFTLTISSLQPEDFATYYCQQADTFPYTFGQGTKLEIK
B13: Antibody 26 (scFv, V domains shown)
VH: QVQLVQSGAEVKKPGASVKVSCKASGYTFTSYYMHWVRQAPGQGLEWMGRINPNSGGTKYAQKFQGRVTMTRDTSTSTVYMELSSLRSEDTAVYYCARLGSAYFDLWGRGTLVTVSS
VL: DIQMTQSPSSLSASVGDRVTITCRASQSVDTWLAWYQQKPGKAPKLLIYEASTLESGVPSRFSGSGSGTDFTLTISSLQPEDFATYYCQQANSFPITFGQGTRLEIK
B14: Antibody 25 (scFv, V domains shown)
VH: EVQLLESGGGLVQPGGSLRLSCAASGFTVGSWYMSWVRQAPGKGLEWVAHVSDDGSNEFYADSVKGRFTISRDNSKNTLYLQMNSLRAEDTAVYYCARSPGYCSSTSCYRYYGMDVWGQGTTVTVSS
VL: DIQMTQSPSSLSASVGDRVTITCRTSQSIGTYLNWYQQKPGKAPKLLIYDASNLPTGVPSRFSGSGSGTDFTLTISSLQPEDFATYYCQNYNSALFGPGTKVDIK
B15: Antibody 10 (scFv, V domains shown)
VH: QVQLVQSGAEVKKPGASVKVSCKASGGTFSNYDISWVRQAPGQGLEWMGMIDPSGGSTSYAQKFQGRVTMTRDTSTSTVYMELSSLRSEDTAVYYCARPYSSGWYYFDYWGQGTLVTVSS
VL: DIQMTQSPSSLSASVGDRVTITCQASQDIHNYLNWYQQKPGKAPKLLIYDASNLETGVPSRFSGSGSGTDFTLTISSLQPEDFATYYCQQSYNTPPTFGQGTRLEIK
B16: Antibody 23 (scFv, V domains shown)
VH: QVQLVQSGAEVKKPGASVKVSCKASGGTFSNYDINWVRQAPGQGLEWMGWISAYNGNTNYAQKLQGRVTMTRDTSTSTVYMELSSLRSEDTAVYYCAAEAYGDYSLDPWGQGTLVTVSS
VL: DIQMTQSPSSLSASVGDRVTITCQASQGISSYLNWYQQKPGKAPKLLIYAASSLQNGVPSRFSGSGSGTDFTLTISSLQPEDFATYYCQQSYSTPITFGQGTRLEIK
B17: Antibody 30 (scFv, V domains shown)
VH: QVQLVQSGAEVKKPGASVKVSCKASGYTFTNFDINWVRQAPGQGLEWMGWISAYNGHTNYAQNLQGRVTMTRDTSTSTVYMELSSLRSEDTAVYYCAQEAAAGYFDYWGQGTLVTVSS
VL: DIQMTQSPSSLSASVGDRVTITCRASQDIRNDLAWYQQKPGKAPKLLIYDASNLETGVPSRFSGSGSGTDFTLTISSLQPEDFATYYCQQSYGTPYTFGQGTKLEIK
B18: Antibody 19 (scFv, V domains shown)
VH: QVQLVQSGAEVKKPGASVKVSCKASGYTFTAYYMHWVRQAPGQGLEWMGIINPSGGSTSYAQKFQGRVTMTRDTSTSTVYMELSSLRSEDTAVYYCARDSGWYAPGYYYGMDVWGQGTTVTVSS
VL: DIQMTQSPSSLSASVGDRVTITCRASESISHWLAWYQQKPGKAPKLLIYGASTLQSGVPSRFSGSGSGTDFTLTISSLQPEDFATYYCQQSYTPPLTFGGGTKVEIK
B19: Antibody 14 (scFv, V domains shown)
VH: QVQLVQSGAEVKKPGASVKVSCKASGYTFTSYYMHWVRQAPGQGLEWMGWVDPNNGDTGYAQKFQGRVTMTRDTSTSTVYMELSSLRSEDTAVYYCARDNWGSLDVWGKGTTVTVSS
VL: DIVMTQSPLSLPVTPGEPASISCRSSQSLLHSNGYNYLDWYLQKPGQSPQLLIYAASTLQSGVPDRFSGSGSGTDFTLKISRVEAEDVGVYYCMQGLQTLYSFGQGTKLEIK
B20: Antibody 34 (scFv, V domains shown)
VH: QVQLVQSGAEVKKPGASVKVSCKASGYTFSNYYMHWVRQAPGQGLEWMGWMNPNSGNTGYAQKFQGRVTMTRDTSTSTVYMELSSLRSEDTAVYYCARASMYSSSGFDYWGQGTLVTVSS
VL: DIVMTQSPLSLPVTPGEPASISCRSSQSLLHSNGYNYLDWYLQKPGQSPQLLIYLASTRAPGVPDRFSGSGSGTDFTLKISRVEAEDVGVYYCMQGSHWPPSFGQGTRLEIK

biological target: cynomolgus monkey SIRPβ1-His monomer protein (cynomolgus monkey); test: BLI

binding, no binding (tested: <0.02 nm at 115 s):
B1
B2
B3
B4
B5
B6
B7
B8
B9
B10
B11
B12
B13
B14
B15
B16
B17
B18
B19
B20

Results are given in words; binding and its absence hold for the method and conditions named.
